PubChem BioAssay AID1259254 – NCATS – 2017
Shown is one part, drawn at random, of about 59,000 reagents. About 1,550 of them (2.6%) count as active. 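G2 share is only a proxy for re-replication; each gene was hit by three separate siRNAs, and active genes were retested.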 Reagents against one gene are numbered here. Further read-outs or replicates are left out here. Not given: the amount of reagent.

Purpose: 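Gene knock-downs that lead to re-replication, shown by excess G2 DNA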 (primary screen)
System: human HCT116 colorectal cancer cells
Reagents: single siRNA against human genes
Time to read-out: 3 days
Read-out: 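Imaged Hoechst DNA stain sorts each cell into a cycle phase by DNA amount; per plate, G2 fraction set to 0% for non-targeting and 100% for GMNN siRNA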
Reading the numbers: G2 robust z-score: higher = more G2 cells, more excess DNA replication
Rule for the call: 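An siRNA counts as active if its G2 robust z-score lies at least 5 MADs above the screen median; here such calls match roughly 38% of GMNN control or more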

What did the screen give for SEC16B #1?
G2 robust z-score: -0.941; outcome: inactive

What is on record for SEC16B #2?
G2 robust z-score: 2.26; outcome: inactive

Which result is listed for SEC16B #3?
G2 robust z-score: 0.31; outcome: inactive

For CPLANE1 #1, what was measured?
G2 robust z-score: 1.42; outcome: inactive

What is on record for CPLANE1 #2?
G2 robust z-score: 0.154; outcome: inactive

With CPLANE1 #3, how do the results read?
G2 robust z-score: -0.668; outcome: inactive

What did the screen give for PSME1 #1?
G2 robust z-score: 0.572; outcome: inactive

For PSME1 #2, how do the results read?
G2 robust z-score: -0.282; outcome: inactive

For PSME1 #3, how do the results read?
G2 robust z-score: 0.256; outcome: inactive

How did the screen score PRPF6 #1?
G2 robust z-score: 0.42; outcome: inactive

What did the screen give for PRPF6 #2?
G2 robust z-score: 0.261; outcome: inactive

For PRPF6 #3, what does the deposit list?
G2 robust z-score: 2.37; outcome: inactive

How did the screen score FZD3 #1?
G2 robust z-score: -0.815; outcome: inactive

What did the screen give for FZD3 #2?
G2 robust z-score: 0.266; outcome: inactive

With FZD3 #3, how do the results read?
G2 robust z-score: -0.542; outcome: inactive

What is on record for DNAJC22 #1?
G2 robust z-score: -0.122; outcome: inactive

What is on record for DNAJC22 #2?
G2 robust z-score: 5.32; outcome: active

For DNAJC22 #3, what was measured?
G2 robust z-score: 1.81; outcome: inactive

What is on record for SOD3 #1?
G2 robust z-score: -0.66; outcome: inactive

What did the screen give for SOD3 #2?
G2 robust z-score: -0.331; outcome: inactive

For SOD3 #3, what does the deposit list?
G2 robust z-score: -0.451; outcome: inactive

With LZTS3 #1, what does the deposit list?
G2 robust z-score: 0.897; outcome: inactive

For LZTS3 #2, how do the results read?
G2 robust z-score: -0.0667; outcome: inactive

How did the screen score LZTS3 #3?
G2 robust z-score: 0.203; outcome: inactive

Called active, of those listed so far:
DNAJC22 #2 — G2 robust z-score: 5.32; outcome: active
